For this assay, the target named is alginate lyase VaAly2 from Vibrio alginolyticus ATCC 17749, without its signal peptide (Vibrio alginolyticus ATCC 17749). Description: SEC; HiLoad 16/600 Superdex 200 prep-grade column, 50 mM Tris-HCl, 400 mM NaCl, pH 8.0, 1 mL/min; size standards 17, 44, 66 and 158 kDa; both purified.

No constants are given. Whether binding was seen depends on the method and setting.

B1: alginate lyase VaAly2 from Vibrio alginolyticus ATCC 17749, without its signal peptide (enzyme, UniProt A0A2I3CRV5 29-521)
chain: PFPNNQETGADILTPVTITASSHDGNVPEQLFDQDIMTRWSANGDGEWAMLDYGSVYEFDAIQASFSKGNERVSKFDVQFSTDGENWVTVIEGAQSSGRALGLERFQFEPAVKARYVRYVGHGNSKNQWNSVTELAAVNCGINACPASHIITDDVVNAEAAMIAQMKAEQKAQKDLLKKNRKGDFGAPIVRPCETTVTCDLSKAMPYPTLPKEPLATNAPGENFDLTRWKLTTPFDHDKDGRADDIDEWDLANGFQHSDIFYTADDGGMVFKSYVKGARTSENTKYARTELRTMLRAGDKSYSTKGVNPNNWVFSSAPVEDQKEAGGVDGTLEATLKIDHATTTGQSHEVGRFIIGQIHDKDDEPIRLYYRKLPDQPTGTVYFAHEKTKTGTEDYYSLVGDMTGEIGDDGIALGEKFSYIIDVKGNTMTVTVKRDGKDDVVQVVDMSDSGYDEGGRYMYFKAGVYNQNMYGNPDDYAQATFYKLKQSFGKYQG
Regarding B1, the binding entry is given as “no binding”.

The record behind these values is article PMC10811132.
